The assay relates to P388 leukemia ip, CD2F1 mice, survival T/C. Description: NCI In Vivo Anticancer Drug Screen. Data for tumor model P388 Leukemia (intraperitoneal) in CD2F1 (CDF1) mice. As to conditions: T/C endpoint: median survival time, higher T/C = longer survival.
The mark [1] stands for this setting: dose: 50.0 mg/kg/injection, schedule: Q01DX009 (ip), vehicle: saline with Tween-80.
The mark [2] stands for this setting: dose: 100.0 mg/kg/injection, schedule: Q01DX009 (ip), vehicle: saline with Tween-80.
Setting [3] is: dose: 200.0 mg/kg/injection, schedule: Q01DX009 (ip), vehicle: saline with Tween-80.
Setting [4] is: dose: 50.0 mg/kg/injection, schedule: Q01DX005 (ip), vehicle: Klucel (hydroxypropylcellulose) (HPC).
Where [5] appears, read: dose: 100.0 mg/kg/injection, schedule: Q01DX005 (ip), vehicle: Klucel (hydroxypropylcellulose) (HPC).
Setting [6] is: dose: 200.0 mg/kg/injection, schedule: Q01DX005 (ip), vehicle: Klucel (hydroxypropylcellulose) (HPC).
The mark [7] stands for this setting: dose: 50.0 mg/kg/injection, schedule: Q01DX005 (ip), vehicle: saline with Tween-80.
[8] abbreviates: dose: 100.0 mg/kg/injection, schedule: Q01DX009 (ip), vehicle: saline.
The mark [9] stands for this setting: dose: 200.0 mg/kg/injection, schedule: Q01DX009 (ip), vehicle: saline.
Setting [10] is: dose: 100.0 mg/kg/injection, schedule: Q01DX005 (ip), vehicle: saline with Tween-80.

Drawing on PubChem BioAssay AID330 (DTP/NCI, 2004), this text covers T/C and survivor count for 25 compounds.

The list shows only some results of the screen, not a fair sample: it gathers tests that were run many times, whatever their T/C, doses with no T/C, and many T/C values between a quarter and a half above the control. Other doses and runs of a compound stand elsewhere. T/C: endpoint of the treated group in % of that of the vehicle group. Some entries give survivors of the animals treated and no T/C: the source files T/C as zero there, which appears to mark a toxic dose or a test without result, not a measured value. Some doses without a T/C left all or most animals alive at the check, yet need not have been tolerated: survival well below the control is almost never listed, so the zero probably covers shortened survival too. Counts of survivors are from the toxicity check (mostly the fifth day) where no day follows; animals may have died later. Schedules are NCI's codes, read here as Q, the interval in days (D) or hours (H), X, the number of doses. Some doses were run more than once; the values are given in rising order. For survival time, the PubChem record calls one and a half times the control and up active, and a quarter to a half above the control has no call in these data; cut-offs in other NCI protocols can differ. Signs of the kind (2×) stand for listed records that agree. Some T/C values carry the count of animals alive at the toxicity check (mostly the fifth day); where none is given, no animal had died by that day.

As for `CNC(=O)OCc1c(COC(=O)NC)c(-c2ccccc2)n(-c2ccc(Cl)c(Cl)c2)c1C`, the T/C by setting is: (dose: 12.5 mg/kg/injection, schedule: Q01DX009 (ip), vehicle: distilled water + Tween-80) 125 % of control; (dose: 25.0 mg/kg/injection, schedule: Q01DX009 (ip), vehicle: distilled water + Tween-80) 142 % of control; (dose: 50.0 mg/kg/injection, schedule: Q01DX009 (ip), vehicle: distilled water + Tween-80, evaluated on day 30) 146 % of control; (dose: 50.0 mg/kg/injection, schedule: Q01DX009 (ip), vehicle: distilled water + Tween-80, evaluated on day 40) 142 % of control.

With `CNC(=S)N/N=C(\C)c1ccccn1`, the survivor count was 3 of 6 (dose: 25.0 mg/kg/injection, schedule: Q01DX009 (ip), vehicle: saline with Tween-80); 0 of 6 and 3 of 6 under setting [1]; 0 of 6 and 2 of 6 under setting [2]; 0 of 6 under setting [3]. Also, the T/C under setting [1] is 130 % of control [4 of 6 alive].

`O=C(NCCNC(=O)C12CC3CC(CC(C3)C1)C2)C12CC3CC(CC(C3)C1)C2`: the survivor count reads like this: (dose: 25.0 mg/kg/injection, schedule: Q01DX005 (ip), vehicle: Klucel (hydroxypropylcellulose) (HPC)) 5 of 5; under setting [4], 5 of 5; under setting [5], 4 of 5; under setting [6], 5 of 5.

Take `COC(=O)c1c(C(=O)OC)c(-c2cccc(Cl)c2)n2c1CCC2`: the survivor count under setting [7] is given as 6 of 6.

As for `COc1c(OC(C)=O)c(OC(C)=O)cc2c1-c1ccc(OC)c(=O)cc1C(NC(C)=O)CC2` (configuration not stated), the T/C was 133 % of control (2×) (dose: 1.0 mg/kg/injection, schedule: Q01DX005 (ip), vehicle: saline); 145 and 146 % of control (dose: 2.0 mg/kg/injection, schedule: Q01DX005 (ip), vehicle: saline); 142 % of control (dose: 4.0 mg/kg/injection, schedule: Q01DX005 (ip), vehicle: saline).

For `Cc1ccc2nc(=O)c3cccnc3n2c1`, the survivor count was 0 of 6 (dose: 60.0 mg/kg/injection, schedule: Q01DX005 (ip), vehicle: saline); 0 of 6 (dose: 120.0 mg/kg/injection, schedule: Q01DX005 (ip), vehicle: saline); 0 of 6 (dose: 240.0 mg/kg/injection, schedule: Q01DX005 (ip), vehicle: saline).

In the case of `O=c1oc2nc(-c3ccccc3)[nH]c(=O)c2c(O)c1Cc1ccccc1`, the survivor count (dose: 120.0 mg/kg/injection, schedule: Q01DX005 (ip), vehicle: Klucel (hydroxypropylcellulose) (HPC)) is recorded as 4 of 6 and the survivor count (dose: 240.0 mg/kg/injection, schedule: Q01DX005 (ip), vehicle: Klucel (hydroxypropylcellulose) (HPC)) was 4 of 6.

For `CN(C)c1ccc2c(=O)c(C(=O)O)c[nH]c2c1`, the survivor count (dose: 100.0 mg/kg/injection, schedule: Q01DX005 (ip), vehicle: saline) is given as 6 of 6 and the survivor count (dose: 200.0 mg/kg/injection, schedule: Q01DX005 (ip), vehicle: saline) is on record as 6 of 6.

`O=[N+]([O-])c1cnc(Sc2ccncn2)s1`: the survivor count runs as follows: (dose: 25.0 mg/kg/injection, schedule: Q01DX009 (ip), vehicle: saline) 4 of 6; (dose: 50.0 mg/kg/injection, schedule: Q01DX009 (ip), vehicle: saline) 0 of 6; under setting [8], 0 of 6; under setting [9], 0 of 6.

Take `CCCN(CCC)CCN1C(=O)NC(C)(c2ccccc2)C1=O` (configuration not stated): the survivor count was 0 of 6 (dose: 120.0 mg/kg/injection, schedule: Q01DX005 (ip), vehicle: saline with Tween-80) and 0 of 6 (dose: 240.0 mg/kg/injection, schedule: Q01DX005 (ip), vehicle: saline with Tween-80).

In the case of `COc1ccc(NC(=O)Nc2ccc(-c3ccc(NC(=O)Nc4ccc(OC)cc4)c(C)c3)cc2C)cc1`, the survivor count under setting [10] is 5 of 5.

As for `Cc1ccc(C(O)(CNC2CCCCC2)c2ccccc2)cc1` (configuration not stated), the survivor count (dose: 100.0 mg/kg/injection, schedule: Q01DX009 (ip), vehicle: saline sonified) was 6 of 6.

On to `CCN1CCC(OC(=O)c2ccccc2)(c2nccc3ccccc23)CC1`, for which the survivor count by setting is: under setting [2], 3 of 6; under setting [3], 0 of 6.

As for `CC(=O)N(C)N=Nc1ccc(C)cc1`, the T/C under setting [9] is 126 % of control. Besides, the survivor count (dose: 400.0 mg/kg/injection, schedule: Q01DX009 (ip), vehicle: saline) is reported as 5 of 6.

Regarding `CCN(CC)CCCC(Nc1c2ccc(Cl)cc2nc2ccc(OC)cc12)c1cccc2ccccc12` (configuration not stated), the survivor count reads like this: under setting [4], 0 of 5; under setting [5], 0 of 5; under setting [6], 0 of 5.

With `CCCCCCCCCCCCCCCC(=O)N(CC#CCN(C(=O)CCCCCCCCCCCCCCC)C(C)CCCN(CC)CC)C(C)CCCN(CC)CC` (configuration not stated), the survivor count is, setting by setting: (dose: 100.0 mg/kg/injection, schedule: Q01DX009 (ip), vehicle: other) 6 of 6; (dose: 200.0 mg/kg/injection, schedule: Q01DX009 (ip), vehicle: other) 0 of 6; (dose: 400.0 mg/kg/injection, schedule: Q01DX009 (ip), vehicle: other) 0 of 6.

On to `COC(=S)C(=S)OC`, for which the survivor count by setting is: under setting [1], 1 of 6 and 2 of 6; under setting [2], 0 of 6; under setting [3], 0 of 6.

Take `Cc1ncc([N+](=O)[O-])n1CCOc1c(Cl)cc(Cl)cc1CN(C)C1CCCCC1`: the survivor count was 0 of 5 under setting [4], 0 of 5 under setting [5] and 0 of 5 under setting [6].

Consider `CN(C)C(=S)S(C)(=O)=O`, for which the survivor count under setting [8] is listed as 0 of 6 and the survivor count under setting [9] is 0 of 6.

As for `[C-]#[O+].[Cl][Ru]([Cl])([Cl])([Cl])[Cl]`, the survivor count by setting is: (dose: 100.0 mg/kg/injection, schedule: Q04DX003 (ip), vehicle: water) 6 of 6; (dose: 200.0 mg/kg/injection, schedule: Q04DX003 (ip), vehicle: water) 5 of 6.

For `CC(C#N)(S(C)(=O)=O)S(=O)(=O)c1ccccc1` (configuration not stated), the survivor count (dose: 12.5 mg/kg/injection, schedule: Q01DX001 (ip), vehicle: saline with Tween-80) was 1 of 6 and 2 of 6; the survivor count (dose: 25.0 mg/kg/injection, schedule: Q01DX001 (ip), vehicle: saline with Tween-80) is 0 of 6; the survivor count (dose: 50.0 mg/kg/injection, schedule: Q01DX001 (ip), vehicle: saline with Tween-80) is given as 0 of 6; the survivor count under setting [7] is listed as 0 of 6; the survivor count under setting [10] is reported as 0 of 6; the survivor count (dose: 200.0 mg/kg/injection, schedule: Q01DX005 (ip), vehicle: saline with Tween-80) is 0 of 6.

As for `CS(=O)(=O)C(=S)Sc1ccccc1`, the survivor count (dose: 100.0 mg/kg/injection, schedule: Q01DX001 (ip), vehicle: saline with Tween-80) was 3 of 6.

Turning to `CC(=O)Nc1ccc(/C=N/NC(=O)c2ccc(C)cc2)cc1`, the survivor count under setting [2] was 6 of 6.

Regarding `S=C1CCNCC1`, for the setting “dose: 12.5 mg/kg/injection, schedule: Q04DX003 (ip), vehicle: saline”, the survivor count is reported as 6 of 6.

As for `O=NN(CCCl)C(=O)Nc1ccccc1`, the T/C is, setting by setting: (dose: 0.13 mg/kg/injection, schedule: Q04DX003 (ip), vehicle: saline with Tween-80) 145 % of control; (dose: 0.25 mg/kg/injection, schedule: Q04DX003 (ip), vehicle: saline with Tween-80) 131 % of control [5 of 6 alive]; (dose: 100.0 mg/kg/injection, schedule: Q04DX003 (ip), vehicle: saline with Tween-80) 136 % of control [4 of 6 alive]. Also, the survivor count (dose: 50.0 mg/kg/injection, schedule: Q04DX003 (ip), vehicle: saline with Tween-80) is listed as 5 of 6; the survivor count (dose: 200.0 mg/kg/injection, schedule: Q04DX003 (ip), vehicle: saline with Tween-80) is 4 of 6; the survivor count (dose: 400.0 mg/kg/injection, schedule: Q04DX003 (ip), vehicle: saline with Tween-80) is 0 of 6.
